Reference: patent US20240199600A1, “CONDENSED HETEROCYCLIC COMPOUND HAVING A SULFONAMIDE GROUP OR SALT THEREOF, AGRICULTURAL OR HORTICULTURAL INSECTICIDE OR ANIMAL ECTOPARASITE OR ENDOPARASITE CONTROL AGENT COMPRISING THE COMPOUND OR THE SALT THEREOF, AND METHOD FOR USING THE COMPOUND OR THE SALT THEREOF, THE INSECTICIDE, OR THE …” (NIHON NOHYAKU CO., LTD., priority 2021, published 2024)
Some of these results come from one statement about several compounds together. For at least one compound, name, drawing or mass did not settle the structure.

Columns and labels:
Laodelphax striatelius = conditions: 500 ppm, rice seedlings dipped 30 seconds, 3rd-instar larvae, 8 days after inoculation
Myzus persicae = experiment: Test for control efficacy on Myzus persicae (foliar application, potted Chinese cabbage); assay type: in vivo; conditions: 500 ppm, foliar application to Chinese cabbage plants, 6 days after application
Plutella xylostella = conditions: 500 ppm, seedlings with laid eggs dipped about 30 seconds, 25° C., 6 days after dip treatment

| SMILES | insecticidal efficacy (corrected mortality rate), activity level (Laodelphax striatelius) | control efficacy (control rate), activity level (Myzus persicae) | insecticidal efficacy (corrected mortality rate), activity level (Plutella xylostella) |
| --- | --- | --- | --- |
| CN(C)S(=O)(=O)c1ccc(C2CC2)nc1-c1nc2cc(C(F)(F)F)ncc2n1C [Compound 9-2] | A (the corrected mortality rate is 100%) | A (the control rate is 100%) | A (the corrected mortality rate is 100%) |
| CC(=O)c1ccc(-c2cnc(-c3nc4cc(C(F)(F)F)cnc4n3C)c(S(=O)(=O)N(C)C)c2)cc1 [Compound 1-40] | A (the corrected mortality rate is 100%) | A (the control rate is 100%) | A (the corrected mortality rate is 100%) |
| CN(C)S(=O)(=O)c1cc(NC(=O)OC(C)(C)C)cnc1-c1nc2cc(C(F)(F)F)cnc2n1C [Compound 1-19] | A (the corrected mortality rate is 100%) | A (the control rate is 100%) | A (the corrected mortality rate is 100%) |
| Cn1c(-c2ncc(C3CC3)cc2S(=O)(=O)N2CCC2)nc2cc(C(F)(F)F)cnc21 [Compound 1-4] | A (the corrected mortality rate is 100%) | A (the control rate is 100%) | A (the corrected mortality rate is 100%) |
| CC(C)c1cnc(-c2nc3cc(C(F)(F)F)cnc3n2C)c(S(=O)(=O)N(C)C)c1 [Compound 1-33] | A (the corrected mortality rate is 100%) | A (the control rate is 100%) | A (the corrected mortality rate is 100%) |
| CNS(=O)(=O)c1cc(C(F)(F)F)cnc1-c1nc2cc(C(F)(F)F)nnc2n1C [Compound 2-1] | A (the corrected mortality rate is 100%) | A (the control rate is 100%) | A (the corrected mortality rate is 100%) |
| CN(C)S(=O)(=O)c1cc(-c2ccc(F)c(F)c2)cnc1-c1nc2cc(C(F)(F)F)cnc2n1C [Compound 1-36] | A (the corrected mortality rate is 100%) | A (the control rate is 100%) | A (the corrected mortality rate is 100%) |
| CN(C)C(=O)c1cnc(-c2nc3cc(C(F)(F)F)cnc3n2C)c(S(=O)(=O)N(C)C)c1 [Compound 1-16] | A (the corrected mortality rate is 100%) | A (the control rate is 100%) | A (the corrected mortality rate is 100%) |
| CN(C)S(=O)(=O)c1cc(-c2cn(C)cn2)cnc1-c1nc2cc(C(F)(F)F)cnc2n1C [Compound 1-67] | A (the corrected mortality rate is 100%) | A (the control rate is 100%) | A (the corrected mortality rate is 100%) |
| CN(C)S(=O)(=O)c1cc(C2CC2)cnc1-c1nc2cc(C(F)(F)F)cnc2n1C [Compound 1-3] | A (the corrected mortality rate is 100%) | A (the control rate is 100%) | A (the corrected mortality rate is 100%) |
| CNS(=O)(=O)c1cc(-c2cccc(C(F)(F)F)c2)cnc1-c1nc2ccc(C(F)(F)F)cn2n1 [Compound 5-7] | A (the corrected mortality rate is 100%) | A (the control rate is 100%) | A (the corrected mortality rate is 100%) |
| COc1cnc(-c2nc3cc(C(F)(F)F)cnc3n2C)c(S(=O)(=O)N(C)C)c1 [Compound 1-22] | A (the corrected mortality rate is 100%) | A (the control rate is 100%) | A (the corrected mortality rate is 100%) |
| CNS(=O)(=O)c1cc(-c2ccc(F)cc2)cnc1-c1nc2cc(S(=O)(=O)C(F)(F)F)ccc2n1C [Compound 3-4] | A (the corrected mortality rate is 100%) | A (the control rate is 100%) | A (the corrected mortality rate is 100%) |
| Cn1c(-c2ncc(-c3cccc(C(F)(F)F)c3)cc2S(=O)(=O)N2CCC2)nc2cc(C(F)(F)C(F)(F)F)nnc21 [Compound 2-10] | A (the corrected mortality rate is 100%) | A (the control rate is 100%) | A (the corrected mortality rate is 100%) |
| CNS(=O)(=O)c1cc(-c2ccc(F)cc2)cnc1-c1nc2cc(C(F)(F)F)cnc2n1C [Compound 1-8] | A (the corrected mortality rate is 100%) | A (the control rate is 100%) | A (the corrected mortality rate is 100%) |
| COc1cccc(-c2cnc(-c3nc4cc(C(F)(F)F)cnc4n3C)c(S(=O)(=O)N(C)C)c2)c1 [Compound 1-46] | A (the corrected mortality rate is 100%) | A (the control rate is 100%) | A (the corrected mortality rate is 100%) |
| CN(C)S(=O)(=O)c1cccnc1-c1nc2cc(C(F)(F)F)cnc2n1C [Compound 1-26] | A (the corrected mortality rate is 100%) | A (the control rate is 100%) | A (the corrected mortality rate is 100%) |
| CN(C)S(=O)(=O)c1cc(-c2ccc(F)cn2)cnc1-c1nc2cc(C(F)(F)F)cnc2n1C [Compound 1-49] | A (the corrected mortality rate is 100%) | A (the control rate is 100%) | A (the corrected mortality rate is 100%) |
| Cc1ccc(-c2cnc(-c3nc4cc(C(F)(F)F)cnc4n3C)c(S(=O)(=O)N(C)C)c2)nc1 [Compound 1-51] | A (the corrected mortality rate is 100%) | A (the control rate is 100%) | A (the corrected mortality rate is 100%) |
| CN(C(=O)OC(C)(C)C)c1cnc(-c2nc3ccc(C(F)(F)F)cn3n2)c(S(=O)(=O)N(C)C)c1 [Compound 5-19] | A (the corrected mortality rate is 100%) | A (the control rate is 100%) | A (the corrected mortality rate is 100%) |
| CN(C)S(=O)(=O)c1cc(C2(C#N)CC2)cnc1-c1nc2cc(C(F)(F)F)cnc2n1C [Compound 1-7] | A (the corrected mortality rate is 100%) | A (the control rate is 100%) | A (the corrected mortality rate is 100%) |
